# Experimental data taken from PubChem BioAssay AID445 (National Center for Advancing Translational Sciences (NCATS), 2006).
# Some of the results follow. Shown are side measurements of this screen, not its main read-out; they come without a call. The list favours compounds with an active or inconclusive main result. Words in brackets tell the shape of the fitted curve; partial curves, single points and poor fits give uncertain potencies.
# Test: IkB Signaling
# Settings: ABC-DLBCL IkBa-CBG/CBR dual luciferase ratio (green luciferase fused to IkBa over red control in OCI-Ly3 lymphoma cells), 4 h
# How it was run: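 Curves were fitted separately to fusion (green), unfused (red) and ratio luminescence, then classed by r2, magnitude and activity. Cells: OCI-Ly3, 4 h compound plus doxycycline at 37C; 10 uM MG-132 defined full response.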
# [1] = measured here: control luc red channel unless noted
smiles,measurement,setting,value
N#C/C(=C\c1ccc(-c2ccc(C(=O)O)cc2)o1)c1nc2ccccc2[nH]1,AC50,[1],"0.316 µM [falling, full curve]"
CCCCOc1ccc(C(=O)N(Cc2nc(-c3ccc(Cl)cc3)no2)C(C)C)cc1,AC50,[1],"25.1 µM [falling, single point]"
Cn1c(=O)oc2cc(S(=O)(=O)N3CCC(C(=O)N4CCN(c5cccc(Cl)c5)CC4)CC3)ccc21,AC50,[1],"12.6 µM [falling, partial curve]"
CCOc1ccc(CCNC(=O)c2ccc(CS(=O)Cc3ccc(Cl)cc3)o2)cc1 (stereo not drawn),AC50,[1],"25.1 µM [falling, partial curve]"
Nc1cccc(-c2nc3ccc(N)cc3s2)c1,AC50,[1],"25.1 µM [falling, single point]"
CC(C)c1nc(SCC(=O)N2CCCC2)c2ccccc2n1,AC50,[1],"31.6 µM [falling, single point]"
CC(C)c1ccc(NC(=O)C(Cc2ccccc2)NS(=O)(=O)c2ccc3c(c2)CCC(=O)N3)cc1 (stereo not drawn),AC50,[1],"39.8 µM [falling, partial curve]"
COc1cc2ncc3c(-c4ccccc4)nn(-c4ccc(C)cc4)c3c2cc1OC,AC50,[1],"20 µM [falling, partial curve]"
Cc1ccc(OCC(=O)Nc2ccc3nc(SCC(=O)N(C)c4ccccc4)sc3c2)cc1,AC50,[1],"7.94 µM [falling, full curve]"
COc1cc(NC(=O)c2ncn(-c3ccccc3)n2)cc(OC)c1,AC50,[1],"3.98 µM [falling, full curve]"
Cn1ncc(C(=O)N2CCN(c3ccccc3F)CC2)c1C1CCN(C(=O)OC(C)(C)C)CC1,AC50,[1],"39.8 µM [falling, single point]"
C/C(CCc1oc2ccccc2c1-c1ccc(C)o1)=N/O,AC50,[1],"31.6 µM [falling, single point]"
O=C1c2ccccc2C(=O)C12Cc1ccccc1N1CCN(c3ccccc3)CC12 (stereo not drawn),AC50,[1],"15.8 µM [falling, partial curve]"
Cc1ccc(NC(=O)c2nc(-c3ccncc3)no2)c(Cl)c1,AC50,[1],"1.58 µM [rising, full curve, poor fit]"
CCOc1ccc(NC(=O)c2oc3ccccc3c2NC(=O)Cc2cccc(C)c2)cc1,AC50,[1],"10 µM [falling, partial curve]"
O=C(CCCOc1ccccc1)Nc1cccc(C(=O)O)c1,AC50,[1],"5.01 µM [falling, partial curve]"
COc1ccc(OC)c(NS(=O)(=O)c2ccc(Br)s2)c1,AC50,[1],"39.8 µM [falling, single point]"
CC(C)c1ccc(NC(=O)CCNS(=O)(=O)c2cccc3nsnc23)cc1,AC50,[1],"0.126 µM [falling, full curve, poor fit]"
COc1ccc(C(=O)Oc2ccc(C(c3c(C)[nH][nH]c3=O)c3c(C)[nH][nH]c3=O)cc2OC)cc1,AC50,[1],"15.8 µM [falling, partial curve]"
CCCN1C(C(=O)c2ccccc2)=C(OC(=O)c2ccc(C)cc2)c2ccccc2S1(=O)=O,AC50,[1],"10 µM [falling, partial curve]"
COc1ccc(NC(=O)c2c(C)oc3ccc(O)c(CN4CCOCC4)c23)cc1,AC50,[1],"25.1 µM [falling, single point]"
Cc1cccc(NC(=O)CSc2nc(=O)n(Cc3cccnc3)c3c2CCC3)c1,AC50,[1],"20 µM [falling, partial curve]"
O=C(Cn1c(=O)nc(-c2ccccc2)c2cc(Cl)ccc21)NCCc1ccccc1,AC50,[1],"7.94 µM [falling, partial curve]"
Cc1ccc(O)c(-c2n[nH]c3c2C(c2ccccc2F)N(Cc2ccco2)C3=O)c1 (stereo not drawn),AC50,[1],"31.6 µM [falling, single point]"
Cc1sc2ncn(CC(=O)N3CCN(c4ccc(F)cc4)CC3)c(=O)c2c1S(=O)(=O)N1CCN(c2ncccn2)CC1,AC50,[1],"15.8 µM [falling, single point]"
COc1cccc(CNC(=O)CCS(=O)(=O)c2ccc3c(c2)CC(C)N3C(=O)C2CC2)c1 (stereo not drawn),AC50,[1],"12.6 µM [rising, partial curve]"
CCOc1ccc(NC(=O)CN2CCN(c3ccc(Cl)cc3)CC2)cc1,AC50,[1],"12.6 µM [falling, partial curve]"
Cc1ccccc1-n1ncc2c(SCC(=O)NCc3cccs3)ncnc21,AC50,[1],"39.8 µM [falling, single point]"
O=C(c1cc(F)cc(F)c1)N1CCC(c2nc(-c3ccc(S(=O)(=O)N4CCCC4)cc3)no2)CC1,AC50,[1],"12.6 µM [falling, partial curve]"
O=C(NCc1ccco1)C(c1ccco1)N(C(=O)Cn1nnc2ccccc21)c1ccc2c(c1)CCC2 (stereo not drawn),AC50,[1],"15.8 µM [falling, partial curve]"
COc1ccc(OC)c(CCNC(=O)c2cc3c(=O)n(C)c4ccccc4c3n2C)c1,AC50,[1],"15.8 µM [falling, partial curve]"
O=C(O)c1ccc(COc2ccc(Cl)cc2)o1,AC50,[1],"15.8 µM [falling, partial curve]"
Cc1cc(C(=O)Cn2nnc3ccccc3c2=O)c(C)n1Cc1cccs1,AC50,[1],"25.1 µM [falling, partial curve]"
O=C(NCC1CCN(Cc2ccc(F)cc2)CC1)c1cc2ccc3cccnc3c2[nH]1,AC50,[1],"15.8 µM [falling, partial curve]"
CCOc1ccc(NC(=O)Cn2c(=O)oc3cc(S(=O)(=O)N4CCC(C)CC4)ccc32)cc1,AC50,[1],"3.98 µM [falling, partial curve]"
COc1ccc(-c2csc(N3CCN(C(=O)c4ccco4)CC3)n2)cc1,AC50,measured here: IkB-luc green channel,"25.1 µM [falling, single point]"
same,AC50,measured here: control luc red channel,"10 µM [falling, partial curve]"
COc1ccc(CCn2c(=O)c3cccnc3n(CC(=O)Nc3cccc(C)c3)c2=O)cc1OC,AC50,[1],"15.8 µM [falling, single point]"
CCOC(=O)C1CCN(C(=O)Cn2nc(C)n3c(cc4cc(C)ccc43)c2=O)CC1,AC50,[1],"31.6 µM [falling, single point]"
COc1cc(-c2c(C#N)c(N)nc3c2CCCC3)ccc1O,AC50,[1],"15.8 nM [rising, full curve] [measured here: IkB-luc green channel]"
Cc1cc2nc(-c3ccc(Br)cc3)cc(C(F)(F)F)n2n1,AC50,[1],"0.01 µM [rising, full curve]"
CCc1nc2c(sc3nc4c(cc32)COC(C)(C)C4)c(=O)n1Cc1ccco1,AC50,[1],"10 µM [falling, partial curve]"
Cc1nc2c(C(=O)NCCc3ccc(Cl)cc3)c[nH]n2c(=O)c1Cc1ccccc1F,AC50,[1],"10 µM [falling, partial curve]"
COc1c(S(=O)(=O)N2CCCCC2)ccc2c(S(=O)(=O)N3CCCCC3)cccc12,AC50,[1],"3.98 µM [falling, partial curve]"
CCc1ccc(N2CCn3c2nc2c3c(=O)n(Cc3c(F)cccc3Cl)c(=O)n2C)cc1,AC50,[1],"20 µM [falling, partial curve]"
Cc1ccc2nc(NS(=O)(=O)c3ccc(Cl)cc3)c(Nc3ccc(C(=O)O)cc3)nc2c1,AC50,[1],"0.398 µM [falling, full curve]"
CCOc1ccc2[nH]c3c(N4CCN(c5ccccn5)CC4)ncnc3c2c1,AC50,[1],"10 µM [falling, partial curve]"
CCc1ccc(Sc2cc(C(=O)NCCCOC(C)C)c3ccccc3n2)cc1,AC50,[1],"15.8 µM [falling, partial curve]"
Cc1cc(C)cc(OCC(=O)Nc2ccc(Cl)c(-c3nc4ncccc4o3)c2)c1,AC50,[1],"7.94 µM [falling, full curve]"
CCOC(=O)c1oc2ccc(S(=O)(=O)n3nc(-c4cc(OC)cc(OC)c4)cc3N)cc2c1C,AC50,[1],"12.6 µM [falling, partial curve]"
CC(=O)Nc1ccc(-n2c(CCC(=O)O)ccc2-c2ccc(C)cc2)cc1,AC50,[1],"20 µM [falling, single point]"
CCCOC(=O)c1cc(=O)[nH]c2ccccc12,AC50,[1],"7.94 µM [rising, partial curve]"
Cc1ccc(NC(=O)CSc2nc3c(oc4ccccc43)c(=O)n2Cc2ccco2)cc1,AC50,[1],"25.1 µM [rising, partial curve, poor fit]"
CCCn1c(=O)c2sccc2n2c(CCCC(=O)N3CCN(c4cccc(C)c4C)CC3)nnc12,AC50,[1],"15.8 µM [falling, partial curve]"
CN(C(=O)CSc1nc2ccccc2n1CC(=O)N(C)c1ccc(F)cc1)c1ccccc1,AC50,[1],"12.6 µM [falling, partial curve]"
O=C(CCN1CCCCC1)c1ccc2c(c1)OCCO2,AC50,[1],"3.98 µM [falling, full curve, poor fit]"
COc1ccc(N2CCN(C(=O)C3CCN(S(=O)(=O)Cc4ccccc4)CC3)CC2)cc1,AC50,[1],"3.16 µM [falling, partial curve]"
O=C(CSc1nccn1Cc1ccc(F)cc1)Nc1ccc2c(c1)OCO2,AC50,[1],"1.26 µM [rising, full curve]"
Cc1ccc(CNC(=O)CN2C(=O)C3(SCC(=O)N3c3cc(C)cc(C)c3)c3ccccc32)cc1 (stereo not drawn),AC50,[1],"10 µM [falling, partial curve]"
Cc1nnc(SCC(=O)Nc2nc3c(s2)CC(C)CC3)s1 (stereo not drawn),AC50,[1],"6.31 µM [falling, full curve, poor fit]"
c1ccc(-n2c(SCc3nc(-c4cccs4)no3)nnc2-c2ccco2)cc1,AC50,[1],"25.1 µM [falling, partial curve]"
Cc1nc(-c2cccc(F)c2)sc1CCNC(=O)c1ccc(F)c(F)c1,AC50,[1],"25.1 µM [falling, partial curve]"
CCN1C(c2ccc(F)cc2)=CS/C1=C(\C#N)c1nnc2n1-c1ccccc1SC2,AC50,[1],"31.6 µM [falling, single point]"

# A different layout for part of the listing above:
smiles | measurement | setting | value
CC(C)c1nc(SCC(=O)N2CCCC2)c2ccccc2n1 | AC50 | [1] | 31.6 µM [falling, single point]
CC(C)c1ccc(NC(=O)C(Cc2ccccc2)NS(=O)(=O)c2ccc3c(c2)CCC(=O)N3)cc1 (stereo not drawn) | AC50 | [1] | 39.8 µM [falling, partial curve]
O=C(Cn1c(=O)nc(-c2ccccc2)c2cc(Cl)ccc21)NCCc1ccccc1 | AC50 | [1] | 7.94 µM [falling, partial curve]
Cc1ccc2nc(NS(=O)(=O)c3ccc(Cl)cc3)c(Nc3ccc(C(=O)O)cc3)nc2c1 | AC50 | [1] | 0.398 µM [falling, full curve]
O=C(CCN1CCCCC1)c1ccc2c(c1)OCCO2 | AC50 | [1] | 3.98 µM [falling, full curve, poor fit]
Cc1nnc(SCC(=O)Nc2nc3c(s2)CC(C)CC3)s1 (stereo not drawn) | AC50 | [1] | 6.31 µM [falling, full curve, poor fit]
